Measurements as given in patent publication US7807788.
These are yes or no findings as the source states them, for the method shown. Some entries that bind do so weakly or less than the wild type.

By UniProt entry, the sequences of proteins in these tests, tags left out. Where a name states a change or a piece, a line headed by the entry shows the natural chain unless it says otherwise.
UniProt P35225: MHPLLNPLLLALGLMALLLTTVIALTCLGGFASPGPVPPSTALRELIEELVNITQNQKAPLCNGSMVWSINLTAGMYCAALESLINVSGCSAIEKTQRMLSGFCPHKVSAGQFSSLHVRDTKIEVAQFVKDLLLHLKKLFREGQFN

Experiments:
[1] = molecular target: native (PBMC derived) human IL-13 (human) (UniProt P35225); assay: ELISA on Th2 cell supernatant
[2] = molecular target: native (PBMC derived) human IL-13 (human) (UniProt P35225); assay: sandwich ELISA: titrated supernatant of stimulated CD4+ Th2 cells as the source of native human IL-13, detected with the mAb

Row | binding [1] | binding [2] | Binder
1 | binds | binds | humanised anti-IL-13 antibody L1+A1 (antibody, human IgG1, kappa, V domains shown) VH: QVQLVQSGAEVKKPGSSVKVSCKASGFYIKDTYMHWVRQAPGQGLEWMGTIDPANGNTKYVPKFQGRVTITADESTSTAYMELSSLRSEDTAVYYCARSIYDDYHYDDYYAMDYWGQGTLVTVSS VL: DIVMTQSPLSLPVTPGEPASISCRSSQNIVHINGNTYLEWYLQKPGQSPRLLIYKISDRFSGVPDRFSGSGSGTDFTLKISRVEADDVGIYYCFQGSHVPWTFGQGTKLEIKR
2 | binds | binds | humanised anti-IL-13 antibody L2+A1 (antibody, human IgG1, kappa, V domains shown) VH: QVQLVQSGAEVKKPGSSVKVSCKASGFYIKDTYMHWVRQAPGQGLEWMGTIDPANGNTKYVPKFQGRVTITADESTSTAYMELSSLRSEDTAVYYCARSIYDDYHYDDYYAMDYWGQGTLVTVSS VL: DIVMTQSPLSLPVTPGEPASISCRSSQNIVHINGNTYLEWYLQKPGQSPRLLIYKISDRFSGVPDRFSGSGSGTDFTLKISRVEADDVGVYYCFQGSHVPWTFGQGTKLEIKR
3 | binds | binds | chimaeric 6A1 monoclonal antibody (antibody, human IgG1, V domains shown) VH: EIQLQQSVAELVRPGASVRLSCTASGFYIKDTYMHWVIQRPEQGLEWIGTIDPANGNTKYVPKFQGKATITADTSSNTAYLRLSSLTSEDTAIYYCARSIYDDYHYDDYYAMDYWGQGTSVTVSS VL: DVLMTQTPLSLPVSLGDQASISCRSSQNIVHINGNTYLEWYLQKPGQSPKLLIYKISDRFSGVPDRFSGSGSGTDFTLKISRVEAEDLGVYYCFQGSHVPWTFGGGTKLEIK
4 | binds | binds | mouse monoclonal antibody 6A1 (antibody, mouse IgG1, V domains shown) VH: EIQLQQSVAELVRPGASVRLSCTASGFYIKDTYMHWVIQRPEQGLEWIGTIDPANGNTKYVPKFQGKATITADTSSNTAYLRLSSLTSEDTAIYYCARSIYDDYHYDDYYAMDYWGQGTSVTVSS VL: DVLMTQTPLSLPVSLGDQASISCRSSQNIVHINGNTYLEWYLQKPGQSPKLLIYKISDRFSGVPDRFSGSGSGTDFTLKISRVEAEDLGVYYCFQGSHVPWTFGGGTKLEIK
